# Assay results

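A panel of P. falciparum strains inside erythrocytes is exposed to compounds for three days, then a DNA-binding dye reports the amount of parasite DNA.
Each compound was titrated across a series from about 0.000037 to 29 µM.
The number is the fitted AC50, the concentration giving a half-maximal change in signal; a lower value means higher potency, whether the curve shows a decrease or an increase.
Calls follow the curve class and fit quality: every row here is inconclusive, covering signal-raising curves and weak, poorly fitted, partial or highest-dose-only inhibition curves.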

Values are in µM.
Every entry below has the call inconclusive.
These entries are mostly ones the record files as inconclusive; other results of the assay are not listed here.
A potency from a partial, single-point or poor curve is only a rough figure.
Some entries filed as inconclusive have a full curve.

structure,condition,potency (µM),curve
CCCC(=O)OC[C@@H](OC(=O)CCC)[C@@H](OC(=O)CCC)[C@H](Cn1c2nc(=O)[nH]c(=O)c-2nc2cc(C)c(C)cc21)OC(=O)CCC,CP247,6.31,"inhibitor, partial curve"
CCCC(=O)OC[C@@H](OC(=O)CCC)[C@@H](OC(=O)CCC)[C@H](Cn1c2nc(=O)[nH]c(=O)c-2nc2cc(C)c(C)cc21)OC(=O)CCC,CP305,21.33,"inhibitor, single point"
CCCC(=O)OC[C@@H](OC(=O)CCC)[C@@H](OC(=O)CCC)[C@H](Cn1c2nc(=O)[nH]c(=O)c-2nc2cc(C)c(C)cc21)OC(=O)CCC,CP335,15.1,"inhibitor, single point"
CCCC(=O)OC[C@@H](OC(=O)CCC)[C@@H](OC(=O)CCC)[C@H](Cn1c2nc(=O)[nH]c(=O)c-2nc2cc(C)c(C)cc21)OC(=O)CCC,PAD,1.259,"inhibitor, partial curve"
CCCC(=O)OC[C@@H](OC(=O)CCC)[C@@H](OC(=O)CCC)[C@H](Cn1c2nc(=O)[nH]c(=O)c-2nc2cc(C)c(C)cc21)OC(=O)CCC,P94_40,12.59,"inhibitor, single point"
CCCC(=O)OC[C@@H](OC(=O)CCC)[C@@H](OC(=O)CCC)[C@H](Cn1c2nc(=O)[nH]c(=O)c-2nc2cc(C)c(C)cc21)OC(=O)CCC,N140,10,"inhibitor, single point"
CCCC(=O)OC[C@@H](OC(=O)CCC)[C@@H](OC(=O)CCC)[C@H](Cn1c2nc(=O)[nH]c(=O)c-2nc2cc(C)c(C)cc21)OC(=O)CCC,CP238,10,"inhibitor, single point"
CCCC(=O)OC[C@@H](OC(=O)CCC)[C@@H](OC(=O)CCC)[C@H](Cn1c2nc(=O)[nH]c(=O)c-2nc2cc(C)c(C)cc21)OC(=O)CCC,C2A,11.22,"inhibitor, single point"
CCCC(=O)OC[C@@H](OC(=O)CCC)[C@@H](OC(=O)CCC)[C@H](Cn1c2nc(=O)[nH]c(=O)c-2nc2cc(C)c(C)cc21)OC(=O)CCC,FAB9,10,"inhibitor, single point"
CCCC(=O)OC[C@@H](OC(=O)CCC)[C@@H](OC(=O)CCC)[C@H](Cn1c2nc(=O)[nH]c(=O)c-2nc2cc(C)c(C)cc21)OC(=O)CCC,AS120,10,"inhibitor, single point"
c1ccc2c(c1)Sc1ccccc1N2CCN1CCCC1,C2A,11.22,"inhibitor, single point"
c1ccc2c(c1)Sc1ccccc1N2CCN1CCCC1,HB3,11.22,"inhibitor, single point"
c1ccc2c(c1)Sc1ccccc1N2CCN1CCCC1,CP203,9.528,"inhibitor, partial curve, poor fit"
c1ccc2c(c1)Sc1ccccc1N2CCN1CCCC1,CP191,10,"inhibitor, single point"
c1ccc2c(c1)Sc1ccccc1N2CCN1CCCC1,CP266,15.1,"inhibitor, single point"
c1ccc2c(c1)Sc1ccccc1N2CCN1CCCC1,CP192,13.46,"inhibitor, single point"
c1ccc2c(c1)Sc1ccccc1N2CCN1CCCC1,PC49,0.631,"inhibitor, full curve, poor fit"
Cc1cc(=O)c2c(O)c3c(O)cc(=O)c4c3c3c(cc(O)c1c23)C(C)(C)C=4O,CP297,1.51,"inhibitor, full curve"
Cc1cc(=O)c2c(O)c3c(O)cc(=O)c4c3c3c(cc(O)c1c23)C(C)(C)C=4O,CP266,1.901,"inhibitor, full curve"
Cc1cc(=O)c2c(O)c3c(O)cc(=O)c4c3c3c(cc(O)c1c23)C(C)(C)C=4O,PC26,1.901,"inhibitor, full curve"
Cc1cc(=O)c2c(O)c3c(O)cc(=O)c4c3c3c(cc(O)c1c23)C(C)(C)C=4O,CP211,7.569,"inhibitor, single point"
Cc1cc(=O)c2c(O)c3c(O)cc(=O)c4c3c3c(cc(O)c1c23)C(C)(C)C=4O,DIV30,2.393,"inhibitor, full curve"
Cc1cc(=O)c2c(O)c3c(O)cc(=O)c4c3c3c(cc(O)c1c23)C(C)(C)C=4O,CP268,2.393,"inhibitor, partial curve, poor fit"
Cc1cc(=O)c2c(O)c3c(O)cc(=O)c4c3c3c(cc(O)c1c23)C(C)(C)C=4O,CP201,3.013,"inhibitor, single point"
Cc1cc(=O)c2c(O)c3c(O)cc(=O)c4c3c3c(cc(O)c1c23)C(C)(C)C=4O,CP325,2.686,"inhibitor, full curve, poor fit"
Cc1cc(=O)c2c(O)c3c(O)cc(=O)c4c3c3c(cc(O)c1c23)C(C)(C)C=4O,CP192,2.393,"inhibitor, partial curve, poor fit"
Cc1cc(=O)c2c(O)c3c(O)cc(=O)c4c3c3c(cc(O)c1c23)C(C)(C)C=4O,7G8,0.2512,"inhibitor, full curve, poor fit"
Cc1cc(=O)c2c(O)c3c(O)cc(=O)c4c3c3c(cc(O)c1c23)C(C)(C)C=4O,CP315,1.694,"inhibitor, partial curve"

Repeated from the top, 4 entries:

{"structure": "CCCC(=O)OC[C@@H](OC(=O)CCC)[C@@H](OC(=O)CCC)[C@H](Cn1c2nc(=O)[nH]c(=O)c-2nc2cc(C)c(C)cc21)OC(=O)CCC", "condition": "CP247", "potency (µM)": "6.31", "curve": "inhibitor, partial curve"}
{"structure": "CCCC(=O)OC[C@@H](OC(=O)CCC)[C@@H](OC(=O)CCC)[C@H](Cn1c2nc(=O)[nH]c(=O)c-2nc2cc(C)c(C)cc21)OC(=O)CCC", "condition": "CP305", "potency (µM)": "21.33", "curve": "inhibitor, single point"}
{"structure": "CCCC(=O)OC[C@@H](OC(=O)CCC)[C@@H](OC(=O)CCC)[C@H](Cn1c2nc(=O)[nH]c(=O)c-2nc2cc(C)c(C)cc21)OC(=O)CCC", "condition": "CP335", "potency (µM)": "15.1", "curve": "inhibitor, single point"}
{"structure": "CCCC(=O)OC[C@@H](OC(=O)CCC)[C@@H](OC(=O)CCC)[C@H](Cn1c2nc(=O)[nH]c(=O)c-2nc2cc(C)c(C)cc21)OC(=O)CCC", "condition": "PAD", "potency (µM)": "1.259", "curve": "inhibitor, partial curve"}

Source: PubChem BioAssay AID504749 (NCATS, 2011).